Measured values as given in patent US20210221848A1 (priority 2014, published 2021).

Test: general procedure: solution-phase peptide synthesis; HATU/DIPEA
Conditions: late stage modification step

Row | Substance | step yield [%]
1 | (S)-4-(Boc)amino-2-hydroxybutanoyl Thr(O-^tBu) Tetra-(N-Boc) polymyxin B nonapeptide [Thr-10(O-triethylsilyl)] | 71
2 | Tri-(BOC)-Polymyxin E Heptapeptide | 56
